Sequences and labels used below:
B1: MFF, endogenous (protein, UniProt Q9GZY8 1-342)
chain: MSKGTSSDTSLGRVSRAAFPSPTAAEMAEISRIQYEMEYTEGISQRMRVPEKLKVAPPNADLEQGFQEGVPNASVIMQVPERIVVAGNNEDVSFSRPADLDLIQSTPFKPLALKTPPRVLTLSERPLDFLDLERPPTTPQNEEIRAVGRLKRERSMSENAVRQNGQLVRNDSLWHRSDSAPRNKISRFQAPISAPEYTVTPSPQQARVCPPHMLPEDGANLSSARGILSLIQSSTRRAYQQILDVLDENRRPVLRGGSAAATSNPHHDNVRYGISNIDTTIEGTSDDLTVVDAASLRRQIIKLNRRLQLLEEENKERAKREMVMYSITVAFWLLNSWLWFRR
B2: MIEF2, endogenous (protein, UniProt Q96C03 1-454)
chain: MAEFSQKRGKRRSDEGLGSMVDFLLANARLVLGVGGAAVLGIATLAVKRFIDRATSPRDEDDTKADSWKELSLLKATPHLQPRPPPAALSQPVLPLAPSSSAPEGPAETDPEVTPQLSSPAPLCLTLQERLLAFERDRVTIPAAQVALAKQLAGDIALELQAYFRSKFPELPFGAFVPGGPLYDGLQAGAADHVRLLVPLVLEPGLWSLVPGVDTVARDPRCWAVRRTQLEFCPRGSSPWDRFLVGGYLSSRVLLELLRKALAASVNWPAIGSLLGCLIRPSMASEELLLEVQHERLELTVAVLVAVPGVDADDRLLLAWPLEGLAGNLWLQDLYPVEAARLRALDDHDAGTRRRLLLLLCAVCRGCSALGQLGRGHLTQVVLRLGEDNVDWTEEALGERFLQALELLIGSLEQASLPCHFNPSVNLFSSLREEEIDDIGYALYSGLQEPEGLL
B3: MTFR1, endogenous (protein, UniProt Q15390 49-333)
chain: CPRVQFQINSHATEWSPSHPGEDAVASFADVGWVAKEEGECSARLRTEVRSRPPLQDDLLFFEKAPSRQISLPDLSQEEPQLKTPALANEEALQKICALENELAALRAQIAKIVTQQEQQNLTAGDLDSTTFGTIPPHPPPPPPPLPPPALGLHQSTSAVDLIKERREKRANAGKTLVKNNPKKPEMPNMLEILKEMNSVKLRSVKRSEQDVKPKPVDATDPAALIAEALKKKFAYRYRSDSQDEVEKGIPKSESEATSERVLFGPHMLKPTGKMKALIENVSDS

Consider three molecules from article PMC6328551.

Results are given in words; binding and its absence hold for the method and conditions named. Binding seen in cells or lysates may run through a third protein. Here binding means that the protein was enriched with, or labelled near, the bait; the list need not be complete.

In this test the target is BioID2-tagged ARMC10 (human). Put plainly: proximity labelling; BioID: HEK293T cells stably expressing BioID2-tagged ARMC10, 50 μM biotin for 16 h, streptavidin agarose beads overnight, mass spectrometry; six repeats, eight controls.
Regarding B1, the binding entry is given as “binds”.

In the case of B2, the binding result is on record as “binds”.

B3: the binding result was “binds”.
